Test results from PubChem BioAssay AID248 (DTP/NCI, 2004).
The list shows only some results of the screen, not a fair sample: it gathers tests that were run many times, whatever their T/C, doses with no T/C, and many T/C values between a quarter and a half above the control. Other doses and runs of a compound stand elsewhere. T/C is the treated group as % of the vehicle group. Some doses have a count of surviving animals in place of a T/C: the source files T/C as zero there, which appears to mark a toxic dose or a test without result, not a measured value. Some survivor counts are full or nearly so, which does not show that the dose was tolerated: survival well below the control is almost never listed, so the zero probably covers shortened survival too. Counts of survivors are from the toxicity check (mostly the fifth day) where no day follows; animals may have died later. Schedules are NCI's codes, read here as Q, the interval in days (D) or hours (H), X, the number of doses. Where survival is the endpoint, the PubChem record calls one and a half times the control and up active, and a quarter to a half above the control has no call in these data; cut-offs in other NCI protocols can differ. Some T/C values carry the count of animals alive at the toxicity check (mostly the fifth day); without a count, all were alive then.

Test system: L1210 leukemia ip in BDF1 mice, survival T/C
Assay: NCI In Vivo Anticancer Drug Screen. Data for tumor model L1210 Leukemia (intraperitoneal) in B6D2F1 (BDF1) mice
Conditions: T/C endpoint: mean survival time, higher T/C = longer survival
[1] = dose: 400.0 mg/kg/injection, schedule: Q01DX009 (ip), vehicle: saline with Tween-80

SMILES: CCCCCCCCCCCC(=O)[O][Sn]([CH2]C)([CH2]C)[O]C(=O)CCCCCCCCCCC
- survivor count (dose: 35.0 mg/kg/injection, schedule: Q01DX009 (ip), vehicle: saline with Tween-80): 0 of 6
- survivor count (dose: 50.0 mg/kg/injection, schedule: Q01DX001 (ip), vehicle: saline): 3 of 6
- survivor count (dose: 55.0 mg/kg/injection, schedule: Q04DX003 (ip), vehicle: acetone): 2 of 6
- survivor count (dose: 80.0 mg/kg/injection, schedule: Q04DX003 (ip), vehicle: acetone): 0 of 6
- survivor count (dose: 100.0 mg/kg/injection, schedule: Q01DX001 (ip), vehicle: saline): 2 of 6
- survivor count (dose: 200.0 mg/kg/injection, schedule: Q01DX001 (ip), vehicle: saline): 0 of 6
- survivor count (dose: 400.0 mg/kg/injection, schedule: Q01DX001 (ip), vehicle: saline): 0 of 6

SMILES: NNc1ncnc2nc[nH]c12
- T/C (dose: 100.0 mg/kg/injection, schedule: Q01DX015 (ip), vehicle: saline): 130 % of control [5 of 6 alive]
- survivor count (dose: 200.0 mg/kg/injection, schedule: Q01DX015 (ip), vehicle: saline): 0 of 6
- survivor count (dose: 400.0 mg/kg/injection, schedule: Q01DX015 (ip), vehicle: saline): 0 of 6

SMILES: Cc1cccc[n+]1CC(=O)c1ccccc1
- survivor count (dose: 200.0 mg/kg/injection, schedule: Q04DX003 (ip), vehicle: saline): 0 of 3
- survivor count (dose: 400.0 mg/kg/injection, schedule: Q04DX003 (ip), vehicle: saline): 0 of 3

SMILES: NP(O)(O)=S
- survivor count (dose: 37.5 mg/kg/injection, schedule: Q01DX001 (ip), vehicle: saline): 2 of 6
- survivor count (dose: 75.0 mg/kg/injection, schedule: Q01DX001 (ip), vehicle: saline): 1 of 6
- survivor count (dose: 150.0 mg/kg/injection, schedule: Q01DX001 (ip), vehicle: saline): 0 of 6
- survivor count (dose: 300.0 mg/kg/injection, schedule: Q01DX001 (ip), vehicle: saline): 0 of 6

SMILES: O=c1oc(-c2ccccc2)n[n+]([O-])c1-c1ccccc1
- survivor count (dose: 200.0 mg/kg/injection, schedule: Q01DX009 (ip), vehicle: Klucel (hydroxypropylcellulose) (HPC)): 2 of 3

SMILES: CC(C)Sc1ncnc2nc[nH]c12
- T/C (dose: 90.0 mg/kg/injection, schedule: Q01DX009 (ip), vehicle: saline with Tween-80): 134 % of control
- T/C (dose: 135.0 mg/kg/injection, schedule: Q01DX009 (ip), vehicle: saline with Tween-80): 141 % of control
- T/C (dose: 150.0 mg/kg/injection, schedule: Q01DX001 (sc), vehicle: steroid suspending solution): 128 % of control
- survivor count (dose: 200.0 mg/kg/injection, schedule: Q01DX009 (sc), vehicle: steroid suspending solution): 4 of 6
- T/C (dose: 300.0 mg/kg/injection, schedule: Q01DX001 (sc), vehicle: steroid suspending solution): 141 % of control
- survivor count (dose: 400.0 mg/kg/injection, schedule: Q01DX009 (sc), vehicle: steroid suspending solution): 4 of 6
- survivor count (dose: 800.0 mg/kg/injection, schedule: Q01DX009 (sc), vehicle: steroid suspending solution): 3 of 6

SMILES: CN(C)C(C)(C)CCCNc1ccnc2cc(Cl)ccc12
- survivor count (dose: 300.0 mg/kg/injection, schedule: Q01DX001 (ip), vehicle: carboxymethylcellulose (CMC)): 0 of 6

SMILES: O=C(/C=C/c1ccccc1)NC(=S)Nc1ccc(O)cc1
- survivor count [1]: 1 of 3
- survivor count (dose: 400.0 mg/kg/injection, schedule: Q04DX002 (ip), vehicle: saline with Tween-80): 1 of 3

SMILES: CSC(=N)c1cccc(OCCCc2ccccc2)c1
- survivor count (dose: 100.0 mg/kg/injection, schedule: Q01DX009 (ip), vehicle: saline with Tween-80): 3 of 6
- survivor count [1]: 1 of 6
